Measured values: patent US20150337021A1
No constants are given. Whether binding was seen depends on the method and setting. Some entries that bind do so weakly or less than the wild type. Tags and fused reporters may be left off the sequences shown.

Sequences of proteins named here, by UniProt entry; tags and fusion partners are left off. A change or cut given only in a name is not applied to a line headed by its entry.
UniProt O75581: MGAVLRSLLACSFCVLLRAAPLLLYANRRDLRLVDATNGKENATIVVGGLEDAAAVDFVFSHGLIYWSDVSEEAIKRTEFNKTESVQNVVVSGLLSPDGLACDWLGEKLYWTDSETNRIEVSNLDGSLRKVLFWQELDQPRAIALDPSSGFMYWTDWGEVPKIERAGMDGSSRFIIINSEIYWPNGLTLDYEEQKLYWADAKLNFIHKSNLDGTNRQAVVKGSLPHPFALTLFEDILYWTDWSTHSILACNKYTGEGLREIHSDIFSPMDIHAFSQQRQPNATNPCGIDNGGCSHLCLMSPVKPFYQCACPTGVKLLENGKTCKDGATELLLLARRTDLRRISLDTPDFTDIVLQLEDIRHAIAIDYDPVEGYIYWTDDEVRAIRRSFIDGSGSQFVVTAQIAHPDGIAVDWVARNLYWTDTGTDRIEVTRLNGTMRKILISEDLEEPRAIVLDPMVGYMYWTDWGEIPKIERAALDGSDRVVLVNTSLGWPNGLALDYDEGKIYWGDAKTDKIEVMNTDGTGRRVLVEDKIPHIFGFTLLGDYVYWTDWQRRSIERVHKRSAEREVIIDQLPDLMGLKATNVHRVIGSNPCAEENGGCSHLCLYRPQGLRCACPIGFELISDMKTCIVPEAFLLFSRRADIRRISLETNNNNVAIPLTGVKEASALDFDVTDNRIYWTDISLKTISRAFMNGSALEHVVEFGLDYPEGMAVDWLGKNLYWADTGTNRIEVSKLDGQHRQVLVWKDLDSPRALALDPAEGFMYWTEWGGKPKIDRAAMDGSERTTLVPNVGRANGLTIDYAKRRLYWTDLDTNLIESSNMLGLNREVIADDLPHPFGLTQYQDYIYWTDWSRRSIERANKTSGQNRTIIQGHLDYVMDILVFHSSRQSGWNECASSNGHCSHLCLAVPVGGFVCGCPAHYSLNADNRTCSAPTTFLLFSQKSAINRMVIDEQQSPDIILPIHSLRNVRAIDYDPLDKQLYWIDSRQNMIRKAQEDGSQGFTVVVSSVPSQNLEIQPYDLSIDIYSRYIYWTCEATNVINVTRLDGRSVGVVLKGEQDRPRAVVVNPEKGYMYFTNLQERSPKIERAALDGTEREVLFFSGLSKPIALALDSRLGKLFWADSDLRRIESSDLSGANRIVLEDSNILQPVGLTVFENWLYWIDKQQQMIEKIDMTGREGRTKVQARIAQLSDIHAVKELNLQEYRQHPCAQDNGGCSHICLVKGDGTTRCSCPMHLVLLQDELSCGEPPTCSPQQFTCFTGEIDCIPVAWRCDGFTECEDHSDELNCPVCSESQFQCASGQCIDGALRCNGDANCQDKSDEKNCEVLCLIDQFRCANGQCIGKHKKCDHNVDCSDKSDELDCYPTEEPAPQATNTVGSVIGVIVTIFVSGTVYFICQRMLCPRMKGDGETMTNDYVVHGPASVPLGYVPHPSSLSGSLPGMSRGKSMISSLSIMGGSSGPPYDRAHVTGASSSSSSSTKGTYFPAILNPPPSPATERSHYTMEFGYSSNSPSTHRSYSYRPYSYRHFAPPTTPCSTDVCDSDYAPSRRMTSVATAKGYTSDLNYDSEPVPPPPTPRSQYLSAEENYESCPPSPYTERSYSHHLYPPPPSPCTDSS
UniProt O75197: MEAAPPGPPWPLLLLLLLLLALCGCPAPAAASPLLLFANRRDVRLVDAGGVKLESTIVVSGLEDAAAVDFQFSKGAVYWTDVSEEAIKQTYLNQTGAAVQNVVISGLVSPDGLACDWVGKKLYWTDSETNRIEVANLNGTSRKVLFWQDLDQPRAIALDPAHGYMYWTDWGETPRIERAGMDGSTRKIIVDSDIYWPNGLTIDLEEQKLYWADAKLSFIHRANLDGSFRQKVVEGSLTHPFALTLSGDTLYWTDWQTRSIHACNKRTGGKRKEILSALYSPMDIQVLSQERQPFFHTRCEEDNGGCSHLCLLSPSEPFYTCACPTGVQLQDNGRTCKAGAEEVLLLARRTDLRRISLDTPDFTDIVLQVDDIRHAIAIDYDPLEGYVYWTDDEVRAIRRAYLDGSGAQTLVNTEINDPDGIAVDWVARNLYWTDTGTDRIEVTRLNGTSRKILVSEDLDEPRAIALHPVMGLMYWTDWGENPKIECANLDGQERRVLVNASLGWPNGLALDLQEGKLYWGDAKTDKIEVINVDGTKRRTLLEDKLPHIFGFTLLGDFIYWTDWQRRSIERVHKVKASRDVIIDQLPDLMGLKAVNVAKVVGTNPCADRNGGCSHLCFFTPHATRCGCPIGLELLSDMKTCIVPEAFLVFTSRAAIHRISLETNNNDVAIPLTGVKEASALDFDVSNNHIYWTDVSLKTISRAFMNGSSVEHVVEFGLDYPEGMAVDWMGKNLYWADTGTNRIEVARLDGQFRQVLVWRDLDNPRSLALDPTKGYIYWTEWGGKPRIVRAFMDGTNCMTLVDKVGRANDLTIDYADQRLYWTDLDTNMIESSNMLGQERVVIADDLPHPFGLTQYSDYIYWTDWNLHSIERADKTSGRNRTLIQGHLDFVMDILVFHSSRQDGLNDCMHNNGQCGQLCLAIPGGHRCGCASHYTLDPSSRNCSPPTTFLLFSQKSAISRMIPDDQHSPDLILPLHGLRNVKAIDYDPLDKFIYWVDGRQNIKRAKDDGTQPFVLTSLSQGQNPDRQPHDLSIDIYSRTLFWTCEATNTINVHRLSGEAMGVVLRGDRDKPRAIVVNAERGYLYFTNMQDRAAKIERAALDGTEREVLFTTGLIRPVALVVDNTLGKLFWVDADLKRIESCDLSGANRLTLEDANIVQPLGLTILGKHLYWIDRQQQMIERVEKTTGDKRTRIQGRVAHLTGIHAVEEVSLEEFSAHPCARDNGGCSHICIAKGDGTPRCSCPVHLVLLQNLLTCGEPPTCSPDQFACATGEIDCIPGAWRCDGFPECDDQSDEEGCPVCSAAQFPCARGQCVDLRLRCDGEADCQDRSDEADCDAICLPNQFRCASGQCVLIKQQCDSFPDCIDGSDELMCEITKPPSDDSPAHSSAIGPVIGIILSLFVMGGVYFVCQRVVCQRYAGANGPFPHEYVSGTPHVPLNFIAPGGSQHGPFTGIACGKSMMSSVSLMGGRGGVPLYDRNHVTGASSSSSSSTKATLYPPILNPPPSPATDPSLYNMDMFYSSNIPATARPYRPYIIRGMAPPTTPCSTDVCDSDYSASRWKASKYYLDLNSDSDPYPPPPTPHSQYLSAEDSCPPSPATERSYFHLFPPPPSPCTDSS

Key:
[1] = biological target: LRP6 (WNT co-receptor, transgenically expressed on HEK293 cells) (Homo sapiens (Human)) (UniProt O75581); test: fluorescence microscopy; medium (4° C.) with DKK1-GFP on HEK293 cells expressing LRP6
[2] = biological target: LRP5 (WNT co-receptor, transgenically expressed on HEK293 cells) (Homo sapiens (Human)) (UniProt O75197); test: fluorescence microscopy; medium (4° C.) with DKK1-GFP on HEK293 cells expressing LRP5
[3] = biological target: LRP6 (WNT co-receptor, transgenically expressed on HEK293 cells) (Homo sapiens (Human)) (UniProt O75581); test: fluorescence microscopy; conditioned medium with DKK1-GFP on HEK293 cells overexpressing LRP6
[4] = biological target: LRP5 (WNT co-receptor, transgenically expressed on HEK293 cells) (Homo sapiens (Human)) (UniProt O75197); test: fluorescence microscopy; conditioned medium with DKK1-GFP on HEK293 cells overexpressing LRP5

Measured: binding

B1: soluble DKK1-GFP fusion protein (ligand, not shown: large carriers)
chain: TLNSVLINSNAIKNLPPPLGGAGGQPGSAVSVAPGVLYEGGNKYQTLDNYQPYPCAEDEECGSDEYCSSPSRGAAGVGGVQICLACRKRRKRCMRHAMCCPGNYCKNGICMPSDHSHFPRGEIEESIIENLGNDHNAAAGDGYPRRTTLTSKIYHTKGQEGSVCLRSSDCAAGLCCARHFWSKICKPVLKEGQVCTKHKRKGSHGLEIFQRCYCGEGLACRIQKDHHQASNSSRLHTCQRH
binds: all assays above
